Assay results reported in paper doi:10.1101/2023.08.13.546412 (bioRxiv, 2023).
These are yes or no findings as the source states them, for the method shown. Some binding calls cover weakened binding; strength is not graded here. Tags and fused reporters may be left off the sequences shown.

Assays:
Assay in all cases: two-hybrid
[1] = biological target: T1, TPR1-BD (TOPLESS-RELATED 1, yeast two-hybrid fusion) (Arabidopsis thaliana) (UniProt Q0WV90)
T1 sequence: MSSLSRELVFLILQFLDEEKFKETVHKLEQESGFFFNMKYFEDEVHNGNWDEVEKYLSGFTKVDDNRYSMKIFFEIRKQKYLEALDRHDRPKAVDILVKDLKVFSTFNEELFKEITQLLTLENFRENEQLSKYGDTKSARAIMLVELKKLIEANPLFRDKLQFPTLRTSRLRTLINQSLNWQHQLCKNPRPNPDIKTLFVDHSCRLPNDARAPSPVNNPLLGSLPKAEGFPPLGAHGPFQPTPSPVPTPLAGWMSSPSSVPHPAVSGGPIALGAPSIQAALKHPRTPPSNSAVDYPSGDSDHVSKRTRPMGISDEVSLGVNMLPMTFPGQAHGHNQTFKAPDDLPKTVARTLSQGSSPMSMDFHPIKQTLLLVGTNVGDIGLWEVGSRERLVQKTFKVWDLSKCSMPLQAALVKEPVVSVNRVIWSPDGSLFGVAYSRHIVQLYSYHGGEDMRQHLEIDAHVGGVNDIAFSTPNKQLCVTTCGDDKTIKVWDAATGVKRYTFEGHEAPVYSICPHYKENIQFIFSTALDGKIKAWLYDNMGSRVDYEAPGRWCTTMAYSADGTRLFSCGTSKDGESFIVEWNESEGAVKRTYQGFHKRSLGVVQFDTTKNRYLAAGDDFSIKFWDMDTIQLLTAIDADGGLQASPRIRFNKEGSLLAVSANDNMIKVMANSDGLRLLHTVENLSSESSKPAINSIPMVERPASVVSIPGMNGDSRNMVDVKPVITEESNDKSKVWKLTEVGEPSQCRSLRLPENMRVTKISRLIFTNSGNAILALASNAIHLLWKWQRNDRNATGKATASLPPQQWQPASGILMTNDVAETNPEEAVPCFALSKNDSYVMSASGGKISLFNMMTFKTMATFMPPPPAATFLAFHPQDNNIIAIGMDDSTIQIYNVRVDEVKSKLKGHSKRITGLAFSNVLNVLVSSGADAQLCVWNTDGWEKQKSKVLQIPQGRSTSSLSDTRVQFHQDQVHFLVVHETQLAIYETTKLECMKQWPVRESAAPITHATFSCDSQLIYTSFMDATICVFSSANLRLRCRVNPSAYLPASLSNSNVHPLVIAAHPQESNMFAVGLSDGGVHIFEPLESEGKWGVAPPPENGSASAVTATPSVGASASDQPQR

[2] = biological target: T2, AtSK11-BD (Arabidopsis SHAGGY-like kinase 11, yeast two-hybrid fusion) (Arabidopsis thaliana) (UniProt P43288)
T2 sequence: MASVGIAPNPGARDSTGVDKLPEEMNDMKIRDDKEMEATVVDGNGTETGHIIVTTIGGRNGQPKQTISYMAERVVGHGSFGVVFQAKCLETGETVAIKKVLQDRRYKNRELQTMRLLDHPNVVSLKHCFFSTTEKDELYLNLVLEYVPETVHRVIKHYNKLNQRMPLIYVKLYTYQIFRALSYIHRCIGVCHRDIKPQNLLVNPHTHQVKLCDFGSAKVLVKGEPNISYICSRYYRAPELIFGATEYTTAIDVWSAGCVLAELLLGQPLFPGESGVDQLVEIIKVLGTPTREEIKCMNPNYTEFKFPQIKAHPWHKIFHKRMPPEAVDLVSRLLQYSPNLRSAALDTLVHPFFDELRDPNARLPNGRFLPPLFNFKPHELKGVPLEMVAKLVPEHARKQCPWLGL

[3] = biological target: T3, AtSK21-BD (Arabidopsis SHAGGY-like kinase 21, yeast two-hybrid fusion) (Arabidopsis thaliana) (UniProt Q39011)
T3 sequence: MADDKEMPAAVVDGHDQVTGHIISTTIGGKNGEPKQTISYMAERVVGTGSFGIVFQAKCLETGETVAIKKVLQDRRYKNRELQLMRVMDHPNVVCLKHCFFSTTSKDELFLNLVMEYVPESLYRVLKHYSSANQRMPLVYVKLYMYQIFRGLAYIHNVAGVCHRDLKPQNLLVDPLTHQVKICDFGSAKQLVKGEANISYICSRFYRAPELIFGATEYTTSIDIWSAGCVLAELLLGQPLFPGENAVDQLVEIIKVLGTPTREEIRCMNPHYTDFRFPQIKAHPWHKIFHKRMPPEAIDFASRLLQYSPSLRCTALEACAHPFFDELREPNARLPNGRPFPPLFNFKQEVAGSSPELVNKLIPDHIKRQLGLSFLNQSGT

[4] = biological target: T4, AtSK22-BD (Arabidopsis SHAGGY-like kinase 22, yeast two-hybrid fusion) (Arabidopsis thaliana) (UniProt Q39012)
T4 sequence: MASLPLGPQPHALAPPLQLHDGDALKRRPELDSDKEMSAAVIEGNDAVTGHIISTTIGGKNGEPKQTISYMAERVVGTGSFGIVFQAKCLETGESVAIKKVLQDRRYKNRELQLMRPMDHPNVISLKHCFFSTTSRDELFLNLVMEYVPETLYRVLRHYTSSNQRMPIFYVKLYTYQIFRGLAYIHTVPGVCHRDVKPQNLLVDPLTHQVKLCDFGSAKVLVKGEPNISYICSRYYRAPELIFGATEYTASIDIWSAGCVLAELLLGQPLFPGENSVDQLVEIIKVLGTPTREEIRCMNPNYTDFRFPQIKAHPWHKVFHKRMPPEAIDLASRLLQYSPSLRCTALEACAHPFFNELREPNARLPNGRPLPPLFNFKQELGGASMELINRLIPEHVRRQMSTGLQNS

binding [1]: binds | binding [2]: no binding | binding [3]: binds weakly | binding [4]: binds weakly
B1: WOX5-AD (WUSCHEL-RELATED HOMEOBOX 5, yeast two-hybrid fusion) (protein, UniProt Q8H1D2 1-182)
chain: MSFSVKGRSLRGNNNGGTGTKCGRWNPTVEQLKILTDLFRAGLRTPTTDQIQKISTELSFYGKIESKNVFYWFQNHKARERQKRRKISIDFDHHHHQPSTRDVFEISEEDCQEEEKVIETLQLFPVNSFEDSNSKVDKMRARGNNQYREYIRETTTTSFSPYSSCGAEMEHPPPLDLRLSFL
